No constants are given. Whether binding was seen depends on the method and setting. Binding seen in cells or lysates may run through a third protein. Some entries that bind do so weakly or less than the wild type.
Legend:
[1] = target: Varicella-zoster virus ORF53 (made by the virus in infected cells) (varicella-zoster virus) (UniProt P09301); experiment: co-IP; VZV-infected cells
[2] = target: Varicella-zoster virus ORF53 (expressed from a plasmid) (varicella-zoster virus) (UniProt P09301); experiment: co-IP; plasmid-transfected cells

Chains of the proteins cited; added tags and fusions are not shown.
UniProt P09301: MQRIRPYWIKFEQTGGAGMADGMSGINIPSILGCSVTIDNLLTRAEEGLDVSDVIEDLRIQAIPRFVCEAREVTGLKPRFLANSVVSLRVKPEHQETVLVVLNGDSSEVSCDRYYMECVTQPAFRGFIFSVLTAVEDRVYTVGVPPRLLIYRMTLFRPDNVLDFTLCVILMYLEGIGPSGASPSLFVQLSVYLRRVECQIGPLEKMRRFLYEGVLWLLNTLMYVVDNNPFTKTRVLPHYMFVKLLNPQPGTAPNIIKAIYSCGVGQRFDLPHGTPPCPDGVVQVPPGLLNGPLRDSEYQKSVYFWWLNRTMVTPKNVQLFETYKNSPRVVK
UniProt P09271: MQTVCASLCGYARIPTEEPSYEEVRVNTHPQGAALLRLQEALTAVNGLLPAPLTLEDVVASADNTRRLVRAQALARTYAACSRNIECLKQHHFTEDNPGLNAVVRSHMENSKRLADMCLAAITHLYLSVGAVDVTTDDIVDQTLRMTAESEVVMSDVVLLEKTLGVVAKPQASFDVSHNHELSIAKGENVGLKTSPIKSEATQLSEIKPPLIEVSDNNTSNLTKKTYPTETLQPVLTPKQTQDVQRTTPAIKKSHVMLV

Substance | binding [1] | binding [2]
Varicella-zoster virus ORF7 (made by the virus in infected cells) (from UniProt P09271 1-259) | binds | 
Varicella-zoster virus ORF7 (expressed from a plasmid) (from UniProt P09271 1-259) |  | binds
